Assay results as given in paper PMC7835017.
Results are given in words; binding and its absence hold for the method and conditions named. For part of these data: Binding seen in cells or lysates may run through a third protein. Some binding calls cover weakened binding; strength is not graded here. Sequences can lack the tags named with a protein.

By UniProt entry, the sequences of proteins in these tests, tags left out.
UniProt O95816: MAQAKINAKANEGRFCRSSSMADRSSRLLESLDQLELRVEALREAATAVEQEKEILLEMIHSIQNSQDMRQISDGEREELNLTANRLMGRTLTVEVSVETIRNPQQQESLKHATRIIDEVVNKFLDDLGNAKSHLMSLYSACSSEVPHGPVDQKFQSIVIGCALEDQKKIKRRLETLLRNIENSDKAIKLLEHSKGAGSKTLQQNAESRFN

T1: Fbxo7 expressed in HEK 293A cells (precipitated by anti-Flag antibody) (UniProt Q9Y3I1)
T1 sequence: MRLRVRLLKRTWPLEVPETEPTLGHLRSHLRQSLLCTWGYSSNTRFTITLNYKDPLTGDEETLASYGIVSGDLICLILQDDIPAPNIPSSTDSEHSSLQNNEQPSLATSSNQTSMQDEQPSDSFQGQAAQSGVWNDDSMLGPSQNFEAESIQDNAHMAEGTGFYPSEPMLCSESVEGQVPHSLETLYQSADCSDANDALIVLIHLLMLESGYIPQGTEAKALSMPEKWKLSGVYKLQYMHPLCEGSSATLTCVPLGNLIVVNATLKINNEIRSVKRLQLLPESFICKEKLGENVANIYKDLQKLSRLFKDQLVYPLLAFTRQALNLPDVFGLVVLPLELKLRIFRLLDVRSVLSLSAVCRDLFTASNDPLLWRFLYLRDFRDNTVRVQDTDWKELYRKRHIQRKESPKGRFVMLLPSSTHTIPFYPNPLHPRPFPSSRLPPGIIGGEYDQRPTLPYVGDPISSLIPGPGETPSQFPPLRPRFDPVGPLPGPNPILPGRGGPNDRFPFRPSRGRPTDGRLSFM

T2: GST-Fbxo7 (UniProt Q9Y3I1)
T2 sequence: T1 sequence

B1: Bag5 expressed in HEK 293A cells (protein, UniProt Q9UL15 1-447)
chain: MDMGNQHPSISRLQEIQKEVKSVEQQVIGFSGLSDDKNYKKLERILTKQLFEIDSVDTEGKGDIQQARKRAAQETERLLKELEQNANHPHRIEIQNIFEEAQSLVREKIVPFYNGGNCVTDEFEEGIQDIILRLTHVKTGGKISLRKARYHTLTKICAVQEIIEDCMKKQPSLPLSEDAHPSVAKINFVMCEVNKARGVLIALLMGVNNNETCRHLSCVLSGLIADLDALDVCGRTEIRNYRREVVEDINKLLKYLDLEEEADTTKAFDLRQNHSILKIEKVLKRMREIKNELLQAQNPSELYLSSKTELQGLIGQLDEVSLEKNPCIREARRRAVIEVQTLITYIDLKEALEKRKLFACEEHPSHKAVWNVLGNLSEIQGEVLSFDGNRTDKNYIRLEELLTKQLLALDAVDPQGEEKCKAARKQAVRLAQNILSYLDLKSDEWEY

Columns and labels:
[1] = target: T1, Fbxo7 expressed in HEK 293A cells (precipitated by anti-Flag antibody); test: co-IP; HEK 293A cells co-transfected with Fbxo7 (or its mutants) and Bag2 or Bag5; Fbxo7 precipitated with anti-Flag (Figure 4B); reciprocal precipitation with anti-Flag or anti-Myc (Figure 4C, D); western blot
[2] = target: T2, GST-Fbxo7; test: pull-down; in vitro binding assay: bacterially expressed GST-Fbxo7 or its mutants co-incubated with bacterially expressed His-Bag2; pulled-down proteins blotted with anti-Bag2 and anti-GST; both purified

Molecule	binding [1]	binding [2]
Bag2 expressed in HEK 293A cells (from UniProt O95816 1-211)	binds	
His-Bag2 (from UniProt O95816 1-211)		binds
B1	no binding	
